Results are given in words; binding and its absence hold for the method and conditions named. Binding seen in cells or lysates may run through a third protein. These calls come from enrichment with a bait or labelling near it, and not all partners need be listed.
Molecular target: Flag-tagged SIRT5 (sirtuin 5), overexpressed in Nalm-6-6-MPR cells (UniProt Q9NXA8)
Assay: affinity purification with mass spectrometry; Flag-SIRT5 overexpressed in Nalm-6-6-MPR cells, lysed in 1% NP-40 buffer, held on Flag Fab-Trap agarose overnight at 4 °C; gel stained with coomassie brilliant blue, cut, tandem mass spectrometry

Amino acid sequences for entries named in this document (tags omitted). Residues count along the entry.
UniProt Q9NXA8, residues 37-310: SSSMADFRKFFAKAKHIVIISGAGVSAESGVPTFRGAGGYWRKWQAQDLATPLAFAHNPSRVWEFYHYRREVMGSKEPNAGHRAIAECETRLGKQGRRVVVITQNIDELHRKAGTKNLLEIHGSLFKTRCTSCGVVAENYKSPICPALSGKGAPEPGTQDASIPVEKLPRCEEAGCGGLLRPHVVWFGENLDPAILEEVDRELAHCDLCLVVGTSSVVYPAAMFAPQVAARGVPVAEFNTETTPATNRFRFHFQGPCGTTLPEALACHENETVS
UniProt P49773: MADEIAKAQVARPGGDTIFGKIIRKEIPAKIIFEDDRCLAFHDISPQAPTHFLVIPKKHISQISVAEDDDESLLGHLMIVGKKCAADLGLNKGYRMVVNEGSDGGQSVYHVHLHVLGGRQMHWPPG

Question: How did the binding turn out when “histidine triad nucleotide-binding protein 1 (HINT1), co-precipitated from Nalm-6-6-MPR cells (from UniProt P49773 1-126)” was run?
Answer: binds
